The numbers were not newly measured in article PMC7821884, “BRAF inhibition protects against hearing loss in mice” (Science Advances, 2020), which cites them from elsewhere.

In the data set the test system is P3-P4 FVB mouse cochlear explants. The arrangement: method as in PMID 29514916, PMID 9303151. Conditions: identical P3 FVB explant model; read-out: IC50, protection from cisplatin in explants; cited from earlier work.

Structures are written as SMILES.

The IC50 is the concentration needed to halve the response being measured. In the case of `O=S([O-])([O-])=S.[Na+].[Na+]` [STS, sodium thiosulfate], the IC50 was 2100 nM.
